Experimental data reported in patent US20170089928A1 (SYSMEX, published 2017).
Results are given in words; binding and its absence hold for the method and conditions named. Some entries that bind do so weakly or less than the wild type. Values belong to the binder of their own block, whether it stands above or below them.

By UniProt entry, the sequences of proteins in these tests, tags left out. Residues count along the entry.
UniProt P02769, residues 25-607: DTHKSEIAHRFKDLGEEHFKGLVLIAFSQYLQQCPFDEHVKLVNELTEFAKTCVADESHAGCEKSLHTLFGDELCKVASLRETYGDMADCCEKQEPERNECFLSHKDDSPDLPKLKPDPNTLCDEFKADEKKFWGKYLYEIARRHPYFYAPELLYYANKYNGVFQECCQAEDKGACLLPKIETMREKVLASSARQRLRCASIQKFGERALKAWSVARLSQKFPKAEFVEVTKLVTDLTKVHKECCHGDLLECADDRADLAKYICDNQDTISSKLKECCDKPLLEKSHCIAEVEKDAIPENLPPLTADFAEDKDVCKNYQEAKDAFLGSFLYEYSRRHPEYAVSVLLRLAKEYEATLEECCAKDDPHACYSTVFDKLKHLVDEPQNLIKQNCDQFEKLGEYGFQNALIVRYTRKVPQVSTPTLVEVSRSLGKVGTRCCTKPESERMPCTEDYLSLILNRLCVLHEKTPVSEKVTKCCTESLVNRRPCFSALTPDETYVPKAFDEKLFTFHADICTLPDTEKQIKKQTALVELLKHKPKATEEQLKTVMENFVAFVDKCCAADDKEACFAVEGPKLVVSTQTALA

Tests used:
[1] = target: Heat-denatured BSA (bovine serum albumin autoclaved for 15 minutes) (bovine) (UniProt P02769); assay: turbidity (OD550), heat-denatured BSA mixed with rising concentration of the kininogen fragment
[2] = target: Heat-denatured BSA (bovine serum albumin autoclaved for 15 minutes) (bovine) (UniProt P02769); assay: turbidity (OD550), heat-denatured BSA mixed with rising concentration of the ITIH4 fragment

- binding [1]: binds
B1: fragment of kininogen (positions 439 to 457) (peptide)
peptide: HNLGHGHKHERDQGHGHQR
notes: also called Kininogen (439-457); kininogen fragment

- binding [2]: binds
B2: fragment of ITIH4 (positions 611 to 642) (peptide)
peptide: GESRNRNVHSGSTFFKYYLQGAKIPKPEASFS
notes: also called ITIH4 (611-642); ITIH4 fragment
